The source of these data is PubChem BioAssay AID1347423 (Functional Genomics Laboratory (NCATS/FGL), 2020).

Hit rate of the full screen: of about 52,000 sequences, about 210 (0.4%) were called active.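 Rule for the calls: active = gene whose silencing raises cell survival under the drug, median off-target-corrected z-score across its silencing RNAs 2 or more; inactive = the rest.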 Some of the results follow.

This assay in a line: Resistance to Poly (ADP-Ribose) Polymerase inhibitor: Gene Identification via Genome-wide siRNA Screen. The following applies: mouse BRCA2 R2336H ES cells, olaparib, CellTiter-Glo viability; stronger effect = higher value. A digest of the protocol: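 Genome-wide siRNA screen (3 siRNAs/gene, 20 nM) in mouse ES cells carrying hypomorphic BRCA2 R2336H; olaparib 500 nM added 48 h post-transfection, CellTiter-Glo viability 72 h later. Normalized to plate-median negative control; MAD z-scores, gene median, seed-adjusted.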
For orientation: ATP-based viability assays read luminescence as a measure of living cells.
In the case of GGUGAACGGAUAUCCUGUGTT against Pdzk2, the z-score is inactive: -0.386. “GGGAUUUUACUCAGGAUUATT against 4930518F03Rik”: the z-score is inactive: 1.04. Consider GCUAUGUGUGGCUAAGUUATT against Usp9x, for which the z-score is inactive: -1.63.

As to GGAAAAUUACCAGAGCACCTT against Ntf3, the z-score is inactive: 0.191.

Consider “GGAAAUAUAUCUGAAAGGGTT against 4930544G21Rik”, for which the z-score was inactive: 0.229.

For the sequence GGAUCAUCUCUUUGGGCUGTT against Pr1, the z-score was inactive: 0.512. Next, GGAUAUCAAGAAAAUGACATT against AW060714: inactive: -0.459; GGUAAUCUCCAAAAAACCATT against Pira3: inactive: 0.516; “GGAUGAGUUUUUCUAUAGCTT against 4732474A20Rik”: inactive: 0.308. Next, GGAUCUGGCCCAAUAUUGUTT against Prss12: inactive: 0.0684; “GGCUCCAAAUCAAACUCUATT against 1300018P11Rik”: inactive: 0.0132. Next, GGGAGCCAAACAAAAUUGCTT against Bet1: inactive: -0.365; GUCAUCAAACUAGGUGCUGTT against Olfr584: active: 5.09.

As to “GGAAAGAAAAAGGUGUCAATT against 2410141M05Rik”, the z-score is inactive: -0.823.

As to “GGAAACUCGAAAUAUAUCUTT against 6030463G20Rik”, the z-score was inactive: 0.183.

Take CCACGGAGACAACUUAGUATT against Scfd2: the z-score is inactive: -0.745. For CUCUGUACUUGGGCAGGAATT against Cyp2c65 the value was inactive: -2.06; for GGCAGAUACUGAUUUUCCGTT against Mcam, inactive: 2.57; for “GGUCUUUAGGUGCUAAAGATT against C920005C14Rik”, inactive: 0.631. For GGCAGAAUUCUCAGAGCUUTT against Syn2 the value was inactive: -2.2. Next, “CCCUGAAGGCUUACUUUUUTT against 4930428O21Rik”: inactive: 0.296; CGUUUUCAGAGAUGUGCGCTT against Cklfsf5: inactive: 0.112; GCCGUUCACUUUUCAGUAUTT against Slc35b3: inactive: -1.56. For GGUGUCGAGAAGCCUCAAATT against Arhgap24, the z-score was inactive: -0.788. Consider GCUGAAACUAACAUUUGAUTT against Anxa3, for which the z-score was inactive: -0.872.

Turning to GGCUGCUCCACCCUAUAAUTT against Sugt1, the z-score was inactive: -1.61. Next, GGUCCCAGACUGAGUGAAATT against Epo: inactive: 2.32; GGGUUUCAGUCUUCUUAUCTT against Olfr556: inactive: -0.249; “GCGGUCUAAGUCCUUUAGCTT against 0610025L06Rik”: inactive: -0.245. Take GGCCACUGGCAAUGAAAAATT against Gata5: the z-score was inactive: 0.623. Regarding GAUCACACUGAAAUCAUCATT against Nudt11, the z-score is inactive: 1.56. Next, GGUUGGCUUCAAAAAUAUGTT against Psmb1: inactive: -3.41. For “CGUCCAAGCAUAUAUGAAATT against Slfn8-pending” the value was inactive: -0.306. Turning to GGUGUAUGAGGUGCUGCUATT against Ushbp1, the z-score is inactive: -1.92. For “CCUGACUCUACAUUUUACATT against 4921526G09Rik” the value was inactive: 1.23; for GGUUGACUUCAAUAGUUCUTT against Krtap4-7, inactive: 0.545; for GCCACUGCACUAUUUAACUTT against Olfr1247, inactive: 0.0845. Next, GGAGAGUUUUAGAUGCCUCTT against Prnpip1: inactive: 0.171; GGGACUCCCAGGCUGUAAATT against Zfp263: inactive: -0.667. Next, GCUAUGGCGCAUACUGCCATT against Olfr881: inactive: -0.673.

On to “CGUGUGGUGUUGGUAUCAGTT against 4930540L03Rik”, for which the z-score was inactive: -0.151. For CCCAAUGAACAAGCUUAAGTT against Eif3s4 the value was inactive: -0.039; for AGUCAAGACCCAUAGAAAATT against Ociad2, inactive: 0.132; for “GGCUCGACUUGGAGAAAAGTT against D2Ertd391e”, inactive: -2.59. Next, GGGAUGCGAGAUGAUCUGCTT against Scrg1: inactive: 0.768.

On to GGAUGAGGAAUUUUACACUTT against Klhl11, for which the z-score is inactive: 0.136. In the case of “GCCAAUAUCUAUCUACUACTT against 4930405J24Rik”, the z-score was inactive: -0.352. Next, “GGGAAGGGAUCCUAUAUUUTT against 2600001B17Rik”: inactive: 2.41. For CCUACCCGAUUAUUCUUACTT against Tmem24 the value was inactive: -0.135.

Turning to “CCACCGUUGUGGAAGAAUCTT against 9130218O11Rik”, the z-score is inactive: -0.00621. For CCACUUUUAAAGGAAUGUGTT against Ncoa1 the value was inactive: -0.0128.

Turning to GGCAUUGGAGAAUUGAAAATT against Sptlc2, the z-score was inactive: 1.12. For GGUCUAAGACUAAAUAUCCTT against Sfxn1 the value was inactive: -0.136. Next, GCAGAAAAUAAAUCGAAGGTT against Sgol2: inactive: -0.33; GGGCUUUGUGGAUGCGAUUTT against Sec15l1: inactive: -0.215. Next, CGCUGUUUGUUCAAGAGGATT against Thbs1: inactive: -1.14; “CGCGAAUCUAUGAAUCAAATT against 2410002M20Rik”: inactive: 0.359; GGCAUACAGUUUUGGCAGUTT against Pilra: inactive: 0.692.

Take GGAUAUCAGGAACAUAGUATT against Leprel2: the z-score was inactive: -0.263. For the sequence GCCUAAUAAAGAGCCUGUCTT against Tifp39, the z-score was inactive: -0.88. For GCCAUGUACACAGACAGUUTT against Mcm10 the value was inactive: -0.279; for GGAUGAGGAGGUCUUUUCUTT against Pde6c, inactive: 0.582; for GGAAAGAAGAUCGAUUACATT against Atp11c, inactive: -0.678. On to GGUAACACUAUCAAGUCUUTT against Txndc2, for which the z-score is inactive: -0.0702.

“GGAGAACUUCUUAUUCAGATT against 1700026D08Rik”: the z-score was inactive: -0.133. Next, GGCCGUAGGACAGUAUACATT against Wnt5a: inactive: -0.601; GCGACCCUUCCAUUGUAUUTT against Vsnl1: inactive: 1.8; “GGACAAAGAUAAUGGAAAATT against 4933407N01Rik”: inactive: 0.929. Next, GGUGUUUGAGCAUAUUGGATT against Cat: inactive: -0.519; GGCCACCUCUCGAAAGUUUTT against Cmya1: inactive: -1.47; GCUCGAUUCAGAAAUCUACTT against Sgce: inactive: -0.611.

Regarding CCUUAUUUUACGGAACUGCTT against Olfr1018, the z-score was inactive: 0.819. For CCAUGUUCGGACGUGGUCUTT against Shkbp1, the z-score was inactive: -0.18. As to GCAUCUUCGAGGUUUCAAATT against BC006583, the z-score is inactive: 2.47. For GCCGAGUCUCAGCUUGUAATT against Dnajc3 the value was inactive: -1.16.

Consider GGAUCUGAGAUUGACCAAGTT against Usp1, for which the z-score is inactive: 1.65. For GCUUAUGAGUUAUAUUGCATT against Olfr894 the value was inactive: 0.0951. For CCACUUUAUGGCCAGCCUUTT against Nr2e3 the value was inactive: -1.69. For the sequence CGAGUUUAAGGACAUCGAATT against Gjb2, the z-score was inactive: -0.146.

With CCCACAGAAUUUGGACAUATT against Ptcra, the z-score is inactive: -0.0222.

With GGUCGACGUGGACUUGACATT against Art4, the z-score is inactive: -2.1.

As for GCACUGGACCAAAGAACGGTT against Ceecam1, the z-score was inactive: 0.0138. For “GGCCAGAGAGUCAAGGUUATT against A030007L22” the value was inactive: -2.36; for GCCACAACCACCUGAACUUTT against Amigo, inactive: 0.657; for GGUUACUAGAAAAGUGUUGTT against Olfr1489, inactive: 1.71. Next, GGGUCAAUUUCUCAUGCCUTT against Icam5: inactive: 0.353. CCGACAGCUCUAAAGGAACTT against Brunol6: the z-score is inactive: -1.23.

With CGUGCUGUUAUAAUGUUGUTT against Ccl12, the z-score was inactive: 0.698.

Take GGAGCUACAGCAGUGCUUUTT against Htr5a: the z-score is inactive: 0.673. For GGUAAUGGUAAAUGAUGUGTT against Celsr3 the value was inactive: -1.41. Next, GCCACCAUCGUCAUGUUGATT against Ptpre: inactive: 0.825. For GGAAGGUCAAGUCUUUUCUTT against Tesk1 the value was inactive: -0.814.

As to CCAACCUGACCUCAAAAUUTT against Olfr913, the z-score is inactive: 0.896. Next, “GGUGAUCGAGGAGAGUCUATT against D130038B21Rik”: inactive: -1.13.

As to “GGUCUGAAAAAAGUAUCUUTT against 4930432O21Rik”, the z-score is inactive: 0.277. Next, CGUCUGUCCUAAUGAACCUTT against MGC118154: inactive: -1.78; GGAACUCUGUAGACAGAAUTT against Lpin1: inactive: -1.23; GGGAAGAAAGAAAAACAAGTT against Col5a3: inactive: 0.137. Next, GCCAUUCGUAGUUGAGACGTT against Ppat: inactive: -1.15; GGAUGCUCAAAACAUUGAATT against Cyp2d26: inactive: -1.08; “UGCCUAUGCGCGUGUUUUGTT against 4931440P22Rik”: inactive: 2.18. Consider “GAGCUCUGCAUUUGGUUAGTT against 2610510H03Rik”, for which the z-score was inactive: -0.517. Regarding GGCCAAGUUUUCUAACUUUTT against Creg2, the z-score was inactive: 0.00504.
